Experimental data published in PMC4808012.
Results are given in words; binding and its absence hold for the method and conditions named. Binding seen in cells or lysates may run through a third protein. Some binding calls cover weakened binding; strength is not graded here.

Amino acid sequences for entries named in this document (tags omitted). Residues count along the entry.
UniProt P21860, residues 20-1342: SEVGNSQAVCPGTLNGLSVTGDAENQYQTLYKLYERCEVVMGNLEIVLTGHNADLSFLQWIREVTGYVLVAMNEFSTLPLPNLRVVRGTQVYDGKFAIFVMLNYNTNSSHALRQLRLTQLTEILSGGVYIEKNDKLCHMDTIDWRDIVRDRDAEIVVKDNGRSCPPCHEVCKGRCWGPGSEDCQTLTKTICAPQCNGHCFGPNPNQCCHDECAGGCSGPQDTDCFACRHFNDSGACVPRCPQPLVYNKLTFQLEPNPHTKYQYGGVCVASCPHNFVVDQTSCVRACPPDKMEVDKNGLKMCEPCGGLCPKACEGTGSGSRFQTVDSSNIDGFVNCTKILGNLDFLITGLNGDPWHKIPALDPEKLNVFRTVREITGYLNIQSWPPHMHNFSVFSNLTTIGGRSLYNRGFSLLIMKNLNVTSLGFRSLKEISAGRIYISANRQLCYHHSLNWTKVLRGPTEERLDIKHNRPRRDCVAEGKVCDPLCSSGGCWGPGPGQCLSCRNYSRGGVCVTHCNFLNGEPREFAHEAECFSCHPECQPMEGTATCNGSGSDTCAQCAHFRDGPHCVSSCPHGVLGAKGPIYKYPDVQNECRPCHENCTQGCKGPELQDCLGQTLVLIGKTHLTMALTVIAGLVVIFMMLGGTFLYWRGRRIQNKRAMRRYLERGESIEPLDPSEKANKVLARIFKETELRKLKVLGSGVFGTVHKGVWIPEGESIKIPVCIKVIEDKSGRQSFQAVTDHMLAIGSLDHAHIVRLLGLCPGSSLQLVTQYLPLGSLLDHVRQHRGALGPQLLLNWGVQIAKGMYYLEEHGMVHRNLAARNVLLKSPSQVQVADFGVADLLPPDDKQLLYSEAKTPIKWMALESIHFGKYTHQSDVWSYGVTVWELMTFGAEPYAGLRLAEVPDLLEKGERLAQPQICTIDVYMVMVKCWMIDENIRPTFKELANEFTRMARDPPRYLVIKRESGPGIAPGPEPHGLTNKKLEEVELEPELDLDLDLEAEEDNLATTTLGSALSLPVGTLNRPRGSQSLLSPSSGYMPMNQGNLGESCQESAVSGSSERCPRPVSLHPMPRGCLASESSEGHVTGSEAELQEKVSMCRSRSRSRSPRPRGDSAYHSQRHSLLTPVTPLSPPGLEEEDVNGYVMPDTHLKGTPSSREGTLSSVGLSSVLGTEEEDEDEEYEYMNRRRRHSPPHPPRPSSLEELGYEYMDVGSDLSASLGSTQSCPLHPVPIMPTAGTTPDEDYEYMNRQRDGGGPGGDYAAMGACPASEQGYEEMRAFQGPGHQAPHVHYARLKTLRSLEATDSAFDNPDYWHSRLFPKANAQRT
UniProt P03165: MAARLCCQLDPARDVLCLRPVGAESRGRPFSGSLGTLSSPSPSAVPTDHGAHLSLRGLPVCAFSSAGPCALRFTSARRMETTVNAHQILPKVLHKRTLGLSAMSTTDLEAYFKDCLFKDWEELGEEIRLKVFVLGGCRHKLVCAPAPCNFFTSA

Assays:
[1] = biological target: ErbB3, transfected into HEK293T cells (UniProt P21860); assay: co-IP; HEK293T cells co-transfected with HBx and ErbB2 or ErbB3; total lysates, IP with anti-ErbB2 or anti-ErbB3, Western blot for HBx (Figure 5I, 5J)
[2] = biological target: ErbB2, transfected into HEK293T cells (UniProt P04626); assay: as above

For “HBV X protein (HBx) (from UniProt P03165 1-154)”, the binding [1] was “binds” and the binding [2] was “binds”.
